Measured values: patent publication US12534439B2, “Xanthohumol derivatives and methods for making and using” (Oregon State University, priority 2021, dated 2026)
Entries after “also recorded” stand apart in the source; their conditions may differ.

System: HFD-fed C57BL/6J mice
Assay: Untargeted cortex LC-MS metabolomics
Format: in vivo
Experimental: Plasma and Cortex LC-MS Metabolomics. The left and right sides of the cortex were pooled and ground using liquid nitrogen. Cortex samples (approximately 30 mg) were extracted as previously described with slight modifications. Tissues were homogenized with 600 μL of cold 80% acetonitrile with 0.1% formic acid containing 0.2 μg/mL of dopamine-d4 (Sigma-Aldrich, St Louis, MO, USA) and 0.2 μg/mL of chlorpropamide (Sigma-Aldrich, St Louis, MO, USA) using a counter-top bullet blender for 2 min and centrifuged at 20 000 rpm for 10 minutes. Supernatants were transferred to high performance liquid chromatography (HPLC) vials for analysis.
LC-high-resolution mass spectrometry/MS. Data dependent acquisition in both negative and positive ion mode was conducted using a Shimadzu Nexera UPLC system coupled to an AB SCIEX TripleTOF 5600 mass spectrometer (AB SCIEX, Toronto, Canada). Chromatographic separation was conducted using an Inertsil Phenyl-3 column (4.6×150 mm, 100 Å, 5 μm; GL Sciences, Tokyo, Japan). Spray voltage was −4200 V for negative ion mode and 4500 V for positive ion mode acquisition. The injection volume was 3 μL. Metabolite identifications were performed using Progenesis QI software (V2.4.6911) with METLIN plugin V1.0.6499 (NonLinear Dynamics, United Kingdom). Progenesis QI was used for peak picking, retention time correction, data normalization, peak alignment, and metabolite annotations. Metabolites were detected in both ion modes; the one with the lowest coefficient of variation of the QC was kept.

Compound	Cortex metabolites significantly decreased by treatment	Increase in cortical IMP (versus control, p=0.006) [%]
COc1cc(O)c(CC=C(C)C)c(O)c1C(=O)/C=C/c1ccc(O)cc1 [XN, xanthohumol]	S-adenosylmethionine (SAM), creatine, 3-phosphoglycerate, reduced glutathione (GSH), and neurotransmitters such as aspartate; also recorded: N-acetyl-aspartate (NAA), choline, carnitine, and oxidized glutathione (GSSG)	
COc1cc(O)c(CC=C(C)C)c(O)c1-c1cc(-c2ccc(O)cc2)n(C)n1 [XP, 4-(5-(4-hydroxyphenyl)-1-methyl-1H-pyrazol-3-yl)-5-methoxy-2-(3-methylbut-2-en-1-yl)benzene-1,3-diol]	S-adenosylmethionine (SAM), creatine, 3-phosphoglycerate, reduced glutathione (GSH), and neurotransmitters such as aspartate	76
